{"source": "patent US20070015230A1", "about": "(AMERICAN NATIONAL RED CROSS, published 2007)", "target": "T1, Human CRP (Novagen) (human, UniProt P02741 19-224)", "T1 construct": "also called C-reactive protein", "T1 sequence (looked up)": "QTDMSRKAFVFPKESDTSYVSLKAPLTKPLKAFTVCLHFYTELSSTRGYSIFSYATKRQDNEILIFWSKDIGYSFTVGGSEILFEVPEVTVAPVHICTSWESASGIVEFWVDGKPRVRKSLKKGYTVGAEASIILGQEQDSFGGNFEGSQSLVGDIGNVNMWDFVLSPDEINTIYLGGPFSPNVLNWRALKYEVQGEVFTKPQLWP", "test": "Bead Blot of library beads loaded from CRP-spiked whole blood, detected with an anti-CRP antibody, confirmed by re-incubation", "note": "These are yes or no findings as the source states them, for the method shown. Some entries that bind do so weakly or less than the wild type.", "data": [{"binder": "LGTYIA", "values": [{"measurement": "binding", "value": "binds"}]}]}
